Laboratory results taken from patent US20200399335A1, “MODIFIED IMMUNOMODULATORY PEPTIDE” (Aarhus Universitet, priority 2018, published 2020).
Part of at least one peptide drawing is inferred or uncertain, most often the ends. Where no end group is shown, it is not given here.

Key:
[1] = system: viral protein VP16; test: Viral VP16 expression in HSV-infected human fibroblast, western blotting 24 hpi; type: cell-based, HSV-1 or HSV-2; conditions: HSV-1 GFP or HSV-2 GFP, MOI 0.1, 1 or 5, 24 hpi; dose-dependent manner
[2] = system: HSV-1 GFP; test: HSV-1 GFP infection of human fibroblast, flow cytometry 48 hpi
[3] = system: HSV-2 GFP; test: HSV-2 GFP infection of human fibroblast, flow cytometry 48 hpi
[4] = target: T1, endogenous IFI16 (Homo sapiens, UniProt Q16666); test: HSV-1 induced degradation of endogenous IFI16 in human fibroblast, western blotting; type: cell-based; conditions: 24 hpi
T1 construct: endogenous in cells; host or cells: human fibroblasts (donor-derived), HSV-infected
T1 sequence (Q16666 1-785): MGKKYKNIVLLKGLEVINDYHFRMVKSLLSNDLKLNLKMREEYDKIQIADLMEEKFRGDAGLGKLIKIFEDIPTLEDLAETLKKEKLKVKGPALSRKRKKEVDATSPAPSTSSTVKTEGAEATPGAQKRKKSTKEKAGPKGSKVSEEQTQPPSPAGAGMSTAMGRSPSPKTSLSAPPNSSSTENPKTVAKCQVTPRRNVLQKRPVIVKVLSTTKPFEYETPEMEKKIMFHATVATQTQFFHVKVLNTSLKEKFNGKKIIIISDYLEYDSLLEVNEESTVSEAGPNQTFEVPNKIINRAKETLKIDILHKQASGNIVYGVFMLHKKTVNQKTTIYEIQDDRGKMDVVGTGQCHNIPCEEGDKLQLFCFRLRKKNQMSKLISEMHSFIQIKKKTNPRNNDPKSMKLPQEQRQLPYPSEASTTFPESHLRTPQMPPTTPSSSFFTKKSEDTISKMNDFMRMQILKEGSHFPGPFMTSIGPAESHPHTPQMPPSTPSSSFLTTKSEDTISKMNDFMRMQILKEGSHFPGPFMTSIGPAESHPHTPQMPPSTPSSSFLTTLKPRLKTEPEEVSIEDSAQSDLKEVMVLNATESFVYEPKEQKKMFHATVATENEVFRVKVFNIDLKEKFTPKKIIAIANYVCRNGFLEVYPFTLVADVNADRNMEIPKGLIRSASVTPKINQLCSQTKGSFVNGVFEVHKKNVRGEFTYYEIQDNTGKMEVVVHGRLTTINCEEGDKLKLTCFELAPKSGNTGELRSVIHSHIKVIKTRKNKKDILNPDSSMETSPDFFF

[5] = WT and STING KO human fibroblast, MOI 0.05, 40 μg/mL peptide, 48 hpi

KKYKNIVLLKGLEVINDYHF-NH2 [peptide 101]
expression of the viral protein VP16 [1]: decreased expression of the viral protein VP16
restriction of HSV-1 infection in STING KO fibroblast [2, 5]: restricts HSV-1 and HSV-2 infection independently of STING
dependence of the antiviral effect on type I interferons ([2]; human fibroblast, HSV-1 GFP MOI 0.1, cGAMP 5 μg/mL as positive control, listed as SEQ ID NO.6): independent of the production of type I interferons
dose dependence of polypeptide-induced viral inhibition ([2]; human fibroblast, HSV-1 and HSV-2 primary infection): dose-dependent
antiviral effect during HSV-1 primary infection ([2]; human fibroblast, MOI 0.05 and 0.1, 48 hpi): potent antiviral drug
restriction of HSV-2 infection in STING KO fibroblast [3, 5]: restricts HSV-1 and HSV-2 infection independently of STING
antiviral effect during HSV-2 primary infection ([3]; human fibroblast, MOI 0.05, 48 hpi): potent antiviral drug
HSV-1 induced degradation of endogenous IFI16 [4]: clearly inhibited
